This note sets out measurements from patent US9271957B2, “Methods of treating or preventing degenerative joint conditions, osteoarthritis, cartilage damage, and related disorders in companion animals” (HILL'S PET NUTRITION, INC., priority 2008, dated 2016).

The series deals with genes related to cartilage and energy metabolism. In words: Differential gene expression profile, whole blood RNA on canine 2 Affymetrix genechips. Format: in vivo, dogs. Particulars: for Number of genes with altered expression: minimum 1.3 fold change, d 30. The text has this:
A differential gene expression profile was studied between an AAFCO control food, a food containing fish oil, and a food containing lipoic acid. At a minimum of 1.3 fold change, a list of 1212 genes was generated compared to the AAFCO control and 1896 genes compared to the food containing fish oil at d 30.
RNA Extraction: Total RNAs were isolated from whole blood samples using the PAXgene RNA isolation kit. All measurements were done with the canine 2 Affymetrix genechips. For statistical analysis, all measurements were normalized with RMA. All analysis was preformed using Partek. An ANOVA t-test was performed for genes that are differentially expressed between the control and test foods were selected based on p-value cutoff 0.1, fold change >+/−1.3.
Table 4 illustrates the change in genes related to cartilage metabolism and energy metabolism in dogs after being fed a control diet compared with dogs fed a control plus lipoic acid.

For the molecule `O=C(O)CCCC[C@@H]1CCSS1` (racemic) [Lipoic acid, lipoic acid], where the note is “dogs fed lipoic acid”, the “Genomic profile compared to dogs fed the control food” value is “genomically leaner”. In addition, the “Number of genes with altered expression” value by setting is: (test food containing lipoic acid vs test food containing fish oil) 1896 genes; (test food with 150 ppm lipoic acid vs AAFCO control food) 1212 genes.
